Data: patent US11389465B2, “Phosphorylated hexaacyl disaccharides (PHADs) for treating or preventing infections” (VANDERBILT UNIVERSITY, priority 2017, dated 2022)
Some entries share one result that the patent states for a list of compounds.

Columns and labels:
sheep blood = assay: Gene expression of sheep blood stimulated with LPS or MPLA (FIG. 5); assay type: cell-based; details: LPS 1 μg/mL or MPLA 10 μg/mL, 90 minutes, room temperature
human blood = assay: Gene expression of human blood stimulated with LPS or MPLA (FIG. 5); assay type: cell-based; details: LPS 1 μg/mL or MPLA 10 μg/mL, 90 minutes, room temperature

Row | Substance | upregulation of genes of inflammatory mediators (IL-1, IL-6, IL-8, TNF alpha, NF-kappaB, ETS2, PTGS2, PTX3, CXCL16, KYNU, CLEC4E) (sheep blood) [fold] | upregulation of genes of inflammatory mediators (IL-1, IL-6, IL-8, TNF alpha, NF-kappaB, ETS2, PTGS2, PTX3, CXCL16, KYNU, CLEC4E) (human blood) [fold]
1 | Lipopolysaccharide [LPS] | > 2 | > 2
2 | Monophosphoryl Lipid A [MPLA] | > 2 | > 2
